According to PMC2483996:
Results are given in words; binding and its absence hold for the method and conditions named.

T1: apo-Tat-RhB (Tat Lai labeled at its N-terminus by rhodamine B, without zinc) (HIV-1 Lai strain)
T1 chain: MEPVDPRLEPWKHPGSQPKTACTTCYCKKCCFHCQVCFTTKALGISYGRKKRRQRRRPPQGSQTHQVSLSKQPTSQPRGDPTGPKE

T2: holo-Tat-RhB (Tat Lai labeled at its N-terminus by rhodamine B, with zinc) (HIV-1 Lai strain)
T2 chain: T1 chain

B1: apo-Tat-RhB (Tat Lai labeled at its N-terminus by rhodamine B, without zinc) (protein)
chain: T1 chain
modifications: here or on the partner: rhodamine B on the N-terminus; rhodamine B on the N-terminus
B2: holo-Tat-RhB (Tat Lai labeled at its N-terminus by rhodamine B, with zinc) (protein)
chain: T1 chain
modifications: here or on the partner: rhodamine B on the N-terminus; zinc bound; rhodamine B on the N-terminus; zinc bound

Legend:
[1] = biological target: T1, apo-Tat-RhB (Tat Lai labeled at its …); assay: fluorescence correlation spectroscopy (FCS); two-photon FCS; 1 μM Tat-RhB in 50 mM Hepes, 0.05% IGEPAL, pH7.5, 20°C; diffusion constant and brightness; both purified; conditions: remark: other sources report otherwise
[2] = biological target: T2, holo-Tat-RhB (Tat Lai labeled at its …); assay: as above; conditions: remark: other sources report otherwise

| Binder | binding [1] | binding [2] |
| --- | --- | --- |
| B1 | no binding (tested: 1 μM) |  |
| B2 |  | no binding (tested: 1 μM) |
